# Measurements: paper PMC9226502
# Sequences of proteins named here, by UniProt entry; tags and fusion partners are left off. A change or cut given only in a name is not applied to a line headed by its entry.
# UniProt P23367: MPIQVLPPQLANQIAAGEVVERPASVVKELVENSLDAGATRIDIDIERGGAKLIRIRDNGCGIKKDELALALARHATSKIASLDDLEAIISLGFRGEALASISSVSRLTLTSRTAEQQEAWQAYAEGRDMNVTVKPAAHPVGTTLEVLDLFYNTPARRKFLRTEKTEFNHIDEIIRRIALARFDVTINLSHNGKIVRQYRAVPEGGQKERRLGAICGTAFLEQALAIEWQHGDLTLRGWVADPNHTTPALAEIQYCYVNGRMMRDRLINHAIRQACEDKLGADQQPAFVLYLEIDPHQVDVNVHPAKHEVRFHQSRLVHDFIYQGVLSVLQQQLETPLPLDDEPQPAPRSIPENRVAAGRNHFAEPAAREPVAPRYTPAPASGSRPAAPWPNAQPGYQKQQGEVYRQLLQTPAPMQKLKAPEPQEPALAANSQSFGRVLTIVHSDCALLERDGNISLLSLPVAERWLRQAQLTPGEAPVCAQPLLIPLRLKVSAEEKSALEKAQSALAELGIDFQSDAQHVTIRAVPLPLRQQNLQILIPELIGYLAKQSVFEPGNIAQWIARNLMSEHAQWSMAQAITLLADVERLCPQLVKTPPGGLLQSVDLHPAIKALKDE
# These are yes or no findings as the source states them, for the method shown. Some entries that bind do so weakly or less than the wild type.
# Target: T1, MutS (UniProt P23909)
# T1 sequence: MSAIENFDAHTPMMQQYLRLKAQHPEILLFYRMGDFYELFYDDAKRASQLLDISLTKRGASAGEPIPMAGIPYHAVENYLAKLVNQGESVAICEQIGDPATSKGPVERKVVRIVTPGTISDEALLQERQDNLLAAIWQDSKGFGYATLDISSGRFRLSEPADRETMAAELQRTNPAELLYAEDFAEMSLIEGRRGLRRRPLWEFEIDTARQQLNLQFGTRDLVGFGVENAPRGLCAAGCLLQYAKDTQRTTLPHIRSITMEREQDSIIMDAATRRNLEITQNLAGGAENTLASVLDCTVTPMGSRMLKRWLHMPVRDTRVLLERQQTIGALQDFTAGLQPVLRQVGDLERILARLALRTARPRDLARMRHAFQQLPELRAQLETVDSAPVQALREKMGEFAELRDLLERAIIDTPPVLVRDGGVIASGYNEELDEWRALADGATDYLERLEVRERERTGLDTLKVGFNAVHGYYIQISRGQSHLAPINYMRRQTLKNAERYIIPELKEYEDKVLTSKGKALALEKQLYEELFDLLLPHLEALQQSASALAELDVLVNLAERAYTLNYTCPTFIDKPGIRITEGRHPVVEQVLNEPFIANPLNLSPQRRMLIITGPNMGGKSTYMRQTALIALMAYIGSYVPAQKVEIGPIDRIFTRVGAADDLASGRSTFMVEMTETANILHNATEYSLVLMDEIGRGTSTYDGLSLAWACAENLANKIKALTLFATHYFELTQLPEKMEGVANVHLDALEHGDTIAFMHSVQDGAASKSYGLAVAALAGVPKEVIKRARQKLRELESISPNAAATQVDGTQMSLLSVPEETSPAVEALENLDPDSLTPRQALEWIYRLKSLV
# Assay: BLI; streptavidin biosensors loaded with a 70 bp end-blocked biotinylated DNA with a single mismatch; 18.75-150 nM MutL with 100 nM MutS in solution; 25 mM HEPES pH 7.5, 150 mM NaCl, 5 mM MgCl2, 2 mM DTT, 0.5 mg/ml BSA, 0.01% Tween 20, 2 mM ATP; MutS-MutL complexes form on the DNA; both purified
row,Substance,binding
1,MutL^H270A (from UniProt P23367 1-615),binds
2,MutL^H270A+H319A (from UniProt P23367 1-615),binds
3,MutL^H319A (from UniProt P23367 1-615),binds
4,"MutL^WT (Escherichia coli MutL protein, wild type) (from UniProt P23367 1-615)",binds
